These are yes or no findings as the source states them, for the method shown. Binding seen in cells or lysates may run through a third protein. Some results given as binding are weak or reduced against the parent protein; the word gives no strength. Tags and fused reporters may be left off the sequences shown.
Key:
[1] = molecular target: soluble PRO175 polypeptide (PRO175 ECD, E. coli, Met-Gly-His10-enterokinase-site tagged) (human); experiment: co-precipitation assay, autoradiograph (legend of FIG. 10)
[2] = molecular target: soluble PRO175 polypeptide (PRO175 ECD, E. coli, Met-Gly-His10-enterokinase-site tagged) (human); experiment: co-precipitation of 125I-PRO175 with immunoadhesin and protein A-sepharose, SDS-PAGE, autoradiography
[3] = molecular target: soluble PRO175 polypeptide (PRO175 ECD, E. coli, Met-Gly-His10-enterokinase-site tagged) (human); experiment: summary of the co-precipitation and FACS assays of Example 6

Measured: binding

B1: PRO364-IgG (soluble immunoglobulin fusion protein of the PRO364 extracellular domain) (Fc fusion)
chain: QRPTGGPGCGPGRLLLGTGTDARCCRVHTTRCCRDYPGEECCSEWDCMCVQPEFHCGDPCCTTCRHHPCPPGQGVQSQGKFSFGFQCIDCASGTFSGGHEGHCKPWTDCTQFGFLTVFPGNKTHNAVCVPGSPPAE
notes: Expressed in insect cells with Baculovirus; also called PRO364 immunoadhesin; PRO364 ECD C-terminus IgG-Fc tagged form; not shown: IgG-Fc at the C-terminus
binds: [1] | [2] | [3]

Reference: patent publication US20050202008A1 (Genentech, published 2005)
